PubChem BioAssay AID504808 | Drosophila RNAi Screening Center | 2011

Screen: 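Chromatin factors that keep E2F targets switched off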 (primary screen)
System: Drosophila S2 cells
Reagent: long dsRNA against Drosophila genes
Detection: 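Dual luciferase plate measurements; E2F-specific signal taken as firefly over Renilla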
Direction: E2F firefly: higher = more E2F reporter activity; Renilla normaliser: higher = more normaliser reporter signal
Rule for the call: 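Called active if the normalised E2F reporter went up by over 50%; the cutoff is arbitrary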
The deposit covers about 21,000 reagents; shown is an unselected part of those that have a named target and a result. In the full data, 18 (0.084%) got an active call. 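Raw counts without plate normalisation, one of two replicates; the ratio scores behind the calls were not deposited.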 Unmarked entries are inactive. Names joined by + are all predicted targets of the reagent. Reagent sequences are not shown. Not given: the amount of reagent, the time to read-out.

gene knocked down	DRSC id	E2F firefly, rep 1	Renilla normaliser, rep 1
CG4783	DRSC15644	47457	3637
CG3294	DRSC00590	95622	3800
CG7582	DRSC16261	1.31e5	6991
Gr57a (Gustatory receptor 57a)	DRSC06401	97408	4864
CG32445	DRSC11678	1.11e5	7719
in (inturned)	DRSC11888	1.33e5	6682
Sans (Scaffold protein containing ankyrin repeats and SAM domain)	DRSC06357	117	31
TAF1C-like	DRSC04073	86300	3745
CG13192	DRSC06317	1.01e5	4092
Cpr49Ah (Cuticular protein 49Ah)	DRSC07204	1.13e5	5054
CG6870	DRSC02998	1.12e5	4740

The list goes on, starting with the last 3 of the part before.
gene knocked down	DRSC id	E2F firefly, rep 1	Renilla normaliser, rep 1
CG13192	DRSC06317	1.01e5	4092
Cpr49Ah (Cuticular protein 49Ah)	DRSC07204	1.13e5	5054
CG6870	DRSC02998	1.12e5	4740
CG10764	DRSC06000	78468	3578
Cep89 (Centrosomal protein 89kDa)	DRSC07110	95202	3908
hdly (hadley)	DRSC15849	1.54e5	8090
Datp (Diadenosine tetraphosphatase)	DRSC01102	1.39e5	6163
Src64B (Src oncogene at 64B)	DRSC08700	89239	3883
E(spl)mgamma-HLH (Enhancer of split mgamma, helix-loop-helix)	DRSC16699	1.11e5	5861
RpS4 (Ribosomal protein S4)	DRSC11272	62063	6370
CG2931	DRSC12324	1.20e5	6264
Roc1b + Cdc5	DRSC08687	1.03e5	4210
spn-B (spindle B)	DRSC17063	1.17e5	5569
sug (sugarbabe)	DRSC06855	3075	190
bt (bent)	DRSC17129	1830	880
bt (bent)	DRSC17171	1412	1024
CG10749	DRSC09798	1.38e5	7070
Ir11a (Ionotropic receptor 11a)	DRSC19699	1.21e5	6139
spri (sprint)	DRSC17846	76942	5300
spri (sprint)	DRSC17984	1.21e5	5555
spri (sprint)	DRSC17985	1.30e5	5648
spri (sprint)	DRSC17986	1.17e5	5559
spri (sprint)	DRSC17988	1.19e5	5075
spri (sprint)	DRSC17989	1.19e5	5971
Actbeta (Activin-beta)	DRSC17185	65217	2393
Actbeta (Activin-beta)	DRSC17217	52995	4571
